From the supplement of paper PMC11348887
Where a name gives a salt, the structure may show the parent alone. The list shows a part of the results. Small differences around the control level are noise.

How the values were obtained:
Conditions in all cases: 5 µM; treatment: days 7-14 after plating, readout day 21
[1] = tested on: hPSC-derived cortical neurons (WA09); test: nucleus area z-score vs screen plate; higher = larger nuclei (more mature)
[2] = tested on: hPSC-derived cortical neurons (WA09); test: total neurite length per nucleus (MAP2) z-score; higher = more neurite growth
[3] = tested on: hPSC-derived cortical neurons (WA09); test: nucleus roundness z-score vs screen plate; higher = rounder nuclei (more mature)
[4] = tested on: hPSC-derived cortical neurons (WA09); test: KCl-induced FOS+/EGR-1+ double-positive nuclei fraction z-score (KCl minus unstimulated); higher = stronger activity-induced IEG response

Row | SMILES | nucleus area z-score [1] | total neurite length per nucleus (z-score) [2] | nucleus roundness z-score [3] | KCl-induced FOS+/EGR-1+ double-positive nuclei fraction z-score [4]
1 | C=C[C@](C)(O)CC[C@@H]1[C@@]2(C)CCCC(C)(C)[C@@H]2CC[C@@]1(C)O [Sclareol] | -0.192 | -0.199 | 0.339 | -0.498
2 | CC1(C)O[C@@H]2[C@@H](CO[C@@]3(COS(N)(=O)=O)OC(C)(C)O[C@@H]23)O1 [Topiramate] | -0.0331 | 0.48 | -1.31 | -1.04
3 | CCN(CC)CC(=O)Nc1c(C)cccc1C [Lidocaine] | 1.13 | -0.641 | -0.271 | 0.907
4 | CCCCCCCCCCC[C@@H](C[C@@H]1OC(=O)[C@H]1CCCCCC)OC(=O)[C@H](CC(C)C)NC=O [Orlistat] | -0.154 | -0.16 | -0.324 | -0.19
5 | C[C@]12C=CC(=O)C=C1CC[C@@H]1[C@@H]2C(=O)C[C@@]2(C)[C@H]1CC[C@]2(O)C(=O)CO [Prednisone] | 1.05 | -0.376 | 0.0342 | -0.238
6 | CN1C(C(=O)Nc2ccccn2)=C(O)c2sc(Cl)cc2S1(=O)=O [Lornoxicam] | 0.548 | 0.0456 | -0.107 | 0.203
7 | Oc1c(Cl)cc(Cl)cc1Sc1cc(Cl)cc(Cl)c1O [Bithionol] | -0.153 | 0.0648 | -0.00542 | 0.945
8 | CC(C)(C)c1ccc(S(=O)(=O)NCc2ccc(C(=O)Nc3cccnc3)cc2)cc1 | 1.07 | -0.489 | -0.525 | 0.362
9 | Cc1cc(N2CCOCC2)cc2[nH]c(-c3c(NC[C@@H](O)c4cccc(Cl)c4)cc[nH]c3=O)nc12 | -1.28 | -0.693 | -0.114 | -0.558
10 | CCCNCC(O)COc1ccccc1C(=O)CCc1ccccc1 (stereo not drawn) [Propafenone HCl] | 0.0719 | -0.591 | -0.308 | -0.448
11 | CC[C@@H]1C(=O)OC[C@@H]1Cc1cncn1C [Pilocarpine HCl] | -0.179 | -0.582 | -1.22 | -0.421
12 | O=C(/C=C/c1cncc(F)c1)c1c(-c2ccccc2)c2cc(Cl)ccc2[nH]c1=O | -16.7 | -5.31 | -16.4 | -0.278
13 | COc1ccc(C2CC(=O)c3c(O)cc(OC4OC(COC5OC(C)C(O)C(O)C5O)C(O)C(O)C4O)cc3O2)cc1OC (stereo not drawn) [Methyl-Hesperidin] | 0.0515 | 1.43 | 0.788 | 1.21
14 | C[C@H](NC(=O)[C@@H](O)c1cc(F)cc(F)c1)C(=O)N[C@@H]1C(=O)N(C)c2ccccc2-c2ccccc21 | -2.04 | 0.826 | 0.0909 | 0.223
15 | C[C@@H]1O[C@@H](O[C@H]2[C@H](Oc3cc(O)c(C(=O)CCc4ccc(O)cc4)c(O)c3)O[C@H](CO)[C@@H](O)[C@@H]2O)[C@H](O)[C@H](O)[C@H]1O [Naringin Dihydrochalcone] | 0.543 | 0.807 | 0.583 | 1.77
16 | Nc1nc2ccc(OC(F)(F)F)cc2s1 [Riluzole] | -0.268 | 0.0927 | -0.9 | -1.3
17 | O=C1c2cccc(O)c2C(=O)c2c(O)cccc21 [Danthron] | 0.551 | -0.0464 | -0.0161 | 1.04
18 | C[C@](N)(Cc1ccc(O)c(O)c1)C(=O)O [Methyldopa] | -0.385 | -0.13 | -0.365 | 0.578
19 | Cn1cc(/C=C/C(=O)c2cccc(F)c2)cc1/C=C/C(=O)NO | 0.00135 | 0.132 | 0.228 | 1.89
20 | COC(=O)Nc1nc2cc(C(=O)c3cccs3)ccc2[nH]1 [Nocodazole] | -5.24 | -0.984 | 0.447 | -0.909
21 | NC(N)=NCCCC(N)C(=O)NCC(=O)NC(CC(=O)O)C(=O)O (stereo not drawn) [RGD (Arg-Gly-Asp) Peptides] | 1.18 | -0.379 | -0.435 | -0.217
22 | Cc1c(NC(=O)OC[C@@H]2COCCN2)cn2ncnc(Nc3ccc4c(cnn4Cc4cccc(F)c4)c3)c12 | 2.7 | 0.502 | 0.508 | 0.0128
23 | C[C@H](NCc1ccc(OCc2cccc(F)c2)cc1)C(N)=O [Safinamide Mesylate] | 0.253 | -0.366 | -0.185 | 0.104
24 | CCNC(=O)c1noc(-c2cc(Cl)c(O)cc2O)c1-c1ccc(OC)cc1 | -10.9 | -3.52 | -1.26 | -0.43
25 | CCN(CC)CCOC(=O)C(c1ccccc1)c1ccccc1 [Adiphenine HCl] | -1.5 | 1.29 | 0.584 | 1.48
26 | CN[C@@H]1[C@H](O)[C@H](NC)[C@H]2O[C@@]3(O)C(=O)C[C@@H](C)O[C@H]3O[C@@H]2[C@H]1O [Spectinomycin HCl] | 0.0524 | 0.684 | 0.214 | 2.02
27 | NNC(=O)c1ccncc1 [Isoniazid] | 1.14 | 0.256 | 0.0637 | 2.24

Some of the entries above, set out differently.
Row	SMILES	nucleus area z-score [1]	total neurite length per nucleus (z-score) [2]	nucleus roundness z-score [3]	KCl-induced FOS+/EGR-1+ double-positive nuclei fraction z-score [4]
19	Cn1cc(/C=C/C(=O)c2cccc(F)c2)cc1/C=C/C(=O)NO	0.00135	0.132	0.228	1.89
22	Cc1c(NC(=O)OC[C@@H]2COCCN2)cn2ncnc(Nc3ccc4c(cnn4Cc4cccc(F)c4)c3)c12	2.7	0.502	0.508	0.0128
